Experimental findings from US12636322B2, “Bacterial strain with high cellulolytic activity” (INSTITUT NATIONAL SUPERIEUR DES SCIENCES AGRONOMIQUES DE …, priority 2021, dated 2026) are described below.

This experiment relates to F. succinogenes HC4. Description: Phenotypic tests for antibiotic resistance. The experiment is classed as cell-based, Fibrobacter succinogenes. As to conditions: liquid filter paper semi-synthetic medium, anaerobic, 48 hours at 38° C. The protocol: Eight antibiotics were tested according to EFSA recommendations for Gram-negative bacteria (31). Before being added to the filter paper semi-synthetic medium, the antibiotics were sterilized by filtration (0.22 μm filters). 24-hours cultures of strain HC4 were inoculated into media containing each antibiotic. A positive control without antibiotics was inoculated from the same culture of strain HC4 and two cultures were prepared for each condition. After 48 hours of incubation at 38° C., the observation of filter paper degradation allowed estimating the bacterial growth. In case of no degradation, a sample of liquid was taken and frozen at −20° C. for further determination of succinate production.

Regarding `O=C(O)c1cn(C2CC2)c2cc(N3CCNCC3)c(F)cc2c1=O` [Ciprofloxacin], the “Concentrations to inhibit growth” value turned out to be 0.25 mg/L.
